PMC11705415
Results are given in words; binding and its absence hold for the method and conditions named. In cells and extracts the contact can be indirect. Here binding means that the protein was enriched with, or labelled near, the bait; the list need not be complete.

Chains of the proteins cited; added tags and fusions are not shown. Lines headed by an entry give the natural chain unless they say otherwise; changes in a name come on top.
UniProt P62069: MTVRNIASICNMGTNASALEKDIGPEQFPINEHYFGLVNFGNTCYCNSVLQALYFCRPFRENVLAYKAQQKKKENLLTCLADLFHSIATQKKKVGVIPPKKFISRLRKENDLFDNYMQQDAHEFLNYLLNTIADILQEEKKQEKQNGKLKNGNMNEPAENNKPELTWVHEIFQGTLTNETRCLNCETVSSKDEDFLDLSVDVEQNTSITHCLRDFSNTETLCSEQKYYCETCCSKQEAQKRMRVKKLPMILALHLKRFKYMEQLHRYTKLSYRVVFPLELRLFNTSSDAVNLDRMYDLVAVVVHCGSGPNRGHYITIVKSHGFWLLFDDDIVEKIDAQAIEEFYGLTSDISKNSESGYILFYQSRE
UniProt Q8CHE4: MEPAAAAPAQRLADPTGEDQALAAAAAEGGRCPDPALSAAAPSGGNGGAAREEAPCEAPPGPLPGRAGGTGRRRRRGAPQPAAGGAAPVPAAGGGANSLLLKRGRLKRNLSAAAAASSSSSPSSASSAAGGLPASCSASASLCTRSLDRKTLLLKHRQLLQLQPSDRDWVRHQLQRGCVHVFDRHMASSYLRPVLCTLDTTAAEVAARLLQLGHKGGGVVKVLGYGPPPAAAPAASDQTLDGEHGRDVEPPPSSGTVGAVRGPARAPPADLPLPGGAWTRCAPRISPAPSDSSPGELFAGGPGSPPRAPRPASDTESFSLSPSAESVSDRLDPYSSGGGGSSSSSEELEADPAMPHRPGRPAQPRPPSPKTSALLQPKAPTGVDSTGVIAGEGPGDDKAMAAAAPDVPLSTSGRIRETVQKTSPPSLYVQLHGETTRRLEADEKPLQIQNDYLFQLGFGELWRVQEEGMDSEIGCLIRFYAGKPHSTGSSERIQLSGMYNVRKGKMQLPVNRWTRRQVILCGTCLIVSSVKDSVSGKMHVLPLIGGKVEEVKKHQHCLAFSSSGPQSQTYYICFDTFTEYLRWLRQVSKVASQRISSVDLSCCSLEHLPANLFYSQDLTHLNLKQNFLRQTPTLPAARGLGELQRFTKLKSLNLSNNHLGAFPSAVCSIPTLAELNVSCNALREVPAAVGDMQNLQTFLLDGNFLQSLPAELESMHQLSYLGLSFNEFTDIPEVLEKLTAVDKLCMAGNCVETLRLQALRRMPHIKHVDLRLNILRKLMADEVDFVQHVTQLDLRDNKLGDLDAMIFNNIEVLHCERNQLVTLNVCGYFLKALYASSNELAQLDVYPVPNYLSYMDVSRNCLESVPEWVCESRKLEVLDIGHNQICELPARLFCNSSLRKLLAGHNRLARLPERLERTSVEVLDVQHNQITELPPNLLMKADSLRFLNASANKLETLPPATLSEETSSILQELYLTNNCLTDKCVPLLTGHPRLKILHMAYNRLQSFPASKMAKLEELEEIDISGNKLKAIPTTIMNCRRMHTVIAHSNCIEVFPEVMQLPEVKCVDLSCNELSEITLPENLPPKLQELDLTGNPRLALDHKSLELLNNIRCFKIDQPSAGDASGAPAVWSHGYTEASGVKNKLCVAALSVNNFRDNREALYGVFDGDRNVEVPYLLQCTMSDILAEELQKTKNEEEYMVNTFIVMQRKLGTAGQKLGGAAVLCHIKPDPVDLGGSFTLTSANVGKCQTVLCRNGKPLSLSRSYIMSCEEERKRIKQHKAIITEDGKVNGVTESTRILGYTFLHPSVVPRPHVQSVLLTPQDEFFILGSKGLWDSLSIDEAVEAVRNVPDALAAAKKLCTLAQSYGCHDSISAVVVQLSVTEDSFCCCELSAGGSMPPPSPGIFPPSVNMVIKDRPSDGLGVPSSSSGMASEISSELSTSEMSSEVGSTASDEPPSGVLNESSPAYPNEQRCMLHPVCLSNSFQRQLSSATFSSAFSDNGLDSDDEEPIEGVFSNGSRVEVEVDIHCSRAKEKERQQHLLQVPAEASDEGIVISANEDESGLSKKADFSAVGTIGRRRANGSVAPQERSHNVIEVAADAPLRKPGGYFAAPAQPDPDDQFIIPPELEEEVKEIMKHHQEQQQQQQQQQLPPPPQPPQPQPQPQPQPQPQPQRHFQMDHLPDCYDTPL

B1: STRN4 (protein, UniProt P58404 1-760)
chain: MMEERAAAAVASAASSCRPLGSGTAPNPTAAAPASSPAPGPGPVGKGGGGGGSPGPTAGPEPLSLPGILHFIQHEWARFEAEKARWEAERAELQAQVAFLQGERKGQENLKTDLVRRIKMLEYALKQERAKYHKLKFGTDLNQGEKKTDLSEQVSNGPVESVTLENSPLVWKEGRQLLRQYLEEVGYTDTILDMRSKRVRSLLGRSLELNGAGEPVEGAPRASPGPGGLSGGESLLVKQIEEQIKRNAAGKDGKERLGGSVLEQIPFLQNCEDEDSDEDDELDSVQHKKQRVRLPSKALVPEMEDEDEEDDSEDAINEFDFLGSGEDGEGSPDPRRCTSEGNPHELESRRVKLQGILADLRDVDGLPPKVTVPPPGTPQPRPHEGSFGFSSDVFIMDTIGGGEVSLGDLADLTVTNDNDLSCDLSDSKDAFKKTWNPKFTLRSHYDGIRSLAFHHSQSALLTASEDGTLKLWNLQKAVTAKKNAALDVEPIHAFRAHRGPVLAVTMGSNSEYCYSGGADARIHSWKIPDLNMDPYDGYDPSVLSHVLEGHGDAVWGLAFSPTSQRLASCSADGTVRIWDPSSSGPSCLCTFPMDGEHGIPTSVAFTSTEPAHVVASFRSGDTVLYDLEAGSALLTLESRGSSGPAQINQVVSHPSQPLTITAHDDRGIRFLDNRTGKSVHSMVAHLDAVTCLAVDPNGVFLMSGSHDCSLRLWSLDNKTCVQEITAHRKKHEEAIHAVACHPSKALIASAGADALAKVFV
modifications: biotin (proximity-dependent biotinylation, sites not stated)
B2: gephyrin (protein, UniProt Q8BUV3 1-769)
chain: MATEGMILTNHDHQIRVGVLTVSDSCFRNLAEDRSGINLKDLVQDPSLLGGTISAYKIVPDEIEEIKETLIDWCDEKELNLILTTGGTGFAPRDVTPEATKEVIEREAPGMALAMLMGSLNVTPLGMLSRPVCGIRGKTLIINLPGSKKGSQECFQFILPALPHAIDLLRDAIVKVKEVHDELEDLPSPPPPLSPPPTTSPHKQTEDKGVQCEEEEEEKKDSGVASTEDSSSSHITAAALAAKIPDSIISRGVQVLPRDTASLSTTPSESPRAQATSRLSTASCPTPKQIRRPDESKGVASRVGSLKARLPSCSSTYSVSEVQSRCSSKENILRASHSAVDITKVARRHRMSPFPLTSMDKAFITVLEMTPVLGTEIINYRDGMGRVLAQDVYAKDNLPPFPASVKDGYAVRAADGPGDRFIIGESQAGEQPTQTVMPGQVMRVTTGAPIPCGADAVVQVEDTELIRESDDGTEELEVRILVQARPGQDIRPIGHDIKRGECVLAKGTHMGPSEIGLLATVGVTEVEVNKFPVVAVMSTGNELLNPEDDLLPGKIRDSNRSTLLATIQEHGYPTINLGIVGDNPDDLLNALNEGISRADVIITSGGVSMGEKDYLKQVLDIDLHAQIHFGRVFMKPGLPTTFATLDIDGVRKIIFALPGNPVSAVVTCNLFVVPALRKMQGILDPRPTIIKARLSCDVKLDPRPEYHRCILTWHHQEPLPWAQSTGNQMSSRLMSMRSANGLLMLPPKTEQYVELHKGEVVDVMVIGRL
modifications: biotin (proximity-dependent biotinylation, sites not stated)
B3: VPS50 (protein, UniProt Q8CI71 1-964)
chain: MQKIKSLMTRQGLKSPPESLNDLGAFESLRVPGKEEFRELREQPSDPQAEQELINSIEQVYFSADPFDIVKYELEKLPPVLNLQELEEYRDKLKQQQSAVSKKVADLILEKQPAYVKELERVTSLQTGLQLAAVICTNGRRHLNIAKEGFTQASLGLLANQRKRQLLIGLLKSLRTIKTLQRTDIRLSEMLEEEDYPGAIQLCLECQKAASTFKHYSCISELNSKLQDTLEQIEEQLDVALSKICKNFDINHYTKVQQAYRLLGKTQTAMDQLHMHFTQAIHNTVFQVVLGYVELCAGNTDTKFQKLQYKDLCTHVTPDSYIPCLADLCKALWEVMLSYYRTMEWHEKHDNEETAAAAEGSNVMSTEEATFDRGYVKKKLEHGLTRIWQDVQLKVKTYLLGTDLSIFKYDDFIFVLDIVSRLMQVGEEFCGSKSEVLQESIRKQSVNYFKNHHRIRLDELRMFLENETWELCPVKSNFSILQLHEFKFLEQSRSPSVSPSKQPSATSSKPVTLFEQYCSGGNPFEIQADHKDEETEDVLASNGYESDEQEKSAYQDYDSDSDVPEELKRDYVDEQTGDVPVKSVSRETLKSRKKSDYSLNKVNAPILTNTTLNVIRLVGKYMQMMNILKPIAFDVIHFMSQLFDYYLYAIYTFFGRNDSLESTGLGLSSSRLKTTLNRIQESLIDLEGSADPTATLTAAEERKEKVPSPHLNQLVILTSGDTLYGLAERVVATESLVFLAEQFEFLQPHLDAVMPAVKKPFLQQFYSQTVSTASELRKPIYWIVAGKAIDYEQMLLLMMNVKWDVKEIMSQHNIYVDALLKEFEQFNKRLNEVSKRVRIPLPVSNILWEHCIRLANRTIVEGYANVKKCSNEGRALMQLDFQQFLMKLEKLTDIRPIPDKEFVETYIKAYYLTENDMERWIKEHREYSTKQLTNLVNVCLGSHINKKARQKLLAAIDEIDRPKR
modifications: biotin (proximity-dependent biotinylation, sites not stated)
B4: VPS51 (protein, UniProt Q3UVL4 1-782)
chain: MAAAAAVGPGLGSGPGDSPEGPEADAPERRRKAHGMLKLYYGLSEGEVAGHPAGPDPLDPTDLNGAHFDPEVYLDKLRRECPLAQLMDSETDMVRQIRALDSDMQTLVYENYNKFISATDTIRKMKNDFRKMEDEMDRLATNMAVITNFSARISATLQDRHERITKLAGVHALLRKLQFLFELPSRLTKCVELGAYGQAVRYQGRARAVLQQYQHLPSFRAIQDDCQVITARLAQQLRQRFREGCSGAPEQAECVELLLALGEPAEELCEEFLAHARGRLEEELSSLEAELGPSPPAPDVLEFTDRGGNGFVGGLCQVAAAYQELFAAQGPAGAEKLAAFAQELGGRYFALVERRLAQEQGGSDNSLLVRALDRFHRRLRAPGALLAAAGLSESATEIVERVARERLSHHLQGLKAAFLSSLTDVRQALAAPRLAGKEGPSLAELLANVASSILSHIKTSLASVHLFTAKEVSFSNKPYFRGEFCSQGVREGLIVGFIRSMCQTAQSFCDSPGEKGGATPPALLLLLSRLCLDYETATISYILTLTDEQFLVQDQSPVTPVSTLCAEARETARRLLTHYVKVQGLVISQMLRKSVETRDWLSTLEPRNVRAVMKRVVEDTTAIDVQVGLLYEEGVRKAQSSDSSKRTFSVYSSSRQQGRYAPSYTPSAPMDTNLLSNIQKLFSERIDVFSPVEFNKVSVLTGIIKISLKTLLECVRLRTFGRFGLQQVQVDCHFLQLYLWRFVADEELVHLLLDEVVASAALRCPDPVPMEPSVVEVICERG
modifications: biotin (proximity-dependent biotinylation, sites not stated)
B5: VPS52 (protein, UniProt Q8C754 1-723)
chain: MAAAATMAAAARELVLRAGASDVEEEEGPLGGGSGLQEPLQLGELDITSDEFILDEVDVHIQANLEDELVKEALKTGVDLRHYSKQVELELQQIEQKSIRDYIQESENIASLHNQITACDAVLERMEQMLGAFQSDLSSISSEIRTLQEQSGAMNIRLRNRQAVRGKLGELVDGLVVPSALVTAILEAPVTEPRFLEQLQELDAKAAAVREQEAMGTAACADVRGVLDRLRVKAVTKIREFILQKIYSFRKPMTNYQIPQAALLKYRFFYQFLLGNERATAKEIRDEYVETLSKIYLSYYRSYVGRLMKVQYEEVAEKDDLMGVEDTAKKGFFSKPSLRSRNTIFTLGTRGTVISPAELEAPILVPHTAQRGEQRYPFEALFRSQHYALLDNSCREYLFICEFFIVSGPAAHDLFHAVMGRTLSMTLKHLESYLADCYDAIAVFLCIHIVLRFRNIAAKRDVPALDRYWEQVLALLWPRFELILEMNVQSVRSTDPQRLGGLDTRPHYITRRYAEFSSALVSINQTIPNERTLQLLGQLQVEVENFVLRVAAEFSSRKEQLVFLINNYDMMLGVLMERAADDSKEVESFQQLLNARTQEFIEELLSPPFGGLVAFVKEAEALIERGQAERLRGEEARVTQLIRGFGSSWKASVESLSQDVMRSFTNFRNGTSIIQGALTQLIQLYHRFHRVLSQPQLRALPARAELINIHHLMVELKKHKPNF
modifications: biotin (proximity-dependent biotinylation, sites not stated)
B6: VPS53 (protein, UniProt Q8CCB4 1-832)
chain: MMEEEELEFVEELEAVLQLTPEVQLAIEQVFPSQDPLDQADFNAVEYINTLFPTEQSLANIDDVVNKIRLKIRRLDDNIRTVVRGQTNVGQDGRQALEEAQKAIQQLFGKIKDIKDKAEKSEQMVKEITRDIKQLDHAKRHLTTSITTLNHLHMLAGGVDSLEAMTRRRQYGEVANLLQGVMNVLEHFHKYMGIPQIRQLSERVKAAQTELGQQILADFEEAFPSQGTKRPGGPSNVLRDACLVANILDPRIKQEIIKKFIKQHLSEYLVLFQENQDVAWLDKIDRRYAWVKRQLVDYEEKYGRMFPREWCMTERISVEFCHVTRAELSKIMRARAKEIEVKLLLFAIQRTTNFEGFLAKRFSGCTLTDGTLKKLESPPPSTNPFLEDETTPEMEELALEKGELEQPKKPKAPDNPFHGIVSKCFEPHLYVYIESQDKNLSELIDRFVADFKAQGPPKPNTDEGGAVLPSCADLFVYYKKCMVQCSQLSTGEPMIALTTIFQKYLREYAWKILSGNLPKTSSSSGGLTISSLLKEKEGSEVARFTLEELCLICSILSTAEYCLATTQQLEEKLKEKVDVSLTERINLTGEMDTFSTVISSSIQLLVQDLDAACDPALIAMSKMPWQNVEHVGDQSPYVTSVILHIKQNVPIIRDNLASTRKYFTQFCIKFANSFIPKFITHLFKCKPISMVGAEQLLLDTHSLKMVLLDLPSIGSQVVRKAPASYTKIVVKGMTRAEMILKVVMAPHEPLVVFVDNYIKLLTDCNSETFQKILDMKGLKRSEQSSMLELLRQRLPAPPSGTEGSSTLSLIAPTPEQESSRIRKLEKLIKKRL
modifications: biotin (proximity-dependent biotinylation, sites not stated)
B7: STRN (protein, UniProt O55106 1-780)
chain: MDEQAGPGVFFSNNHPGAGGAKGLGPLAEAAAAGDGAAAAGAARAQYSLPGILHFLQHEWARFEVERAQWEVERAELQAQIAFLQGERKGQENLKKDLVRRIKMLEYALKQERAKYHKLKYGTELNQGDMKPPSYDSDEGNETEVQPQQNSQLMWKQGRQLLRQYLQEVGYTDTILDVKSKRVRALLGFSSDVTDREDDKNQDSVINGTEAEVKETAMIGKSELTDSASVLDNFKFLESAAADVSDEDEDEDTDGRAKSVIDTSTIVRKKALPDTSEDRDTKEALKEFDFLVTSEEGDNESRSAGDGTDWEKEDQCLTPEAWNVDQGVISKLKEQYKKERKGKKGVKRPNRSKLQDMLANLRDVDELPSLQPSVGSPSRPSSSRLPEQELSRADEVEALTFPPSSGKSFIMGADEALESELGLGELAGLTVANEADSLAYDIANNKDALRKTWNPKFTLRSHFDGIRALAFHPIEPVLITASEDHTLKMWNLQKTAPAKKSTSLDVEPIYTFRAHKGPVLCVVMSSNGEQCYSGGTDGRIQSWSTTNPNVDPYDAYDPSVLRGPLLGHTDAVWGLAYSAAHQRLLSCSADGTLRLWNTTEVAPALSVFNDNQELGIPASVDLVSSDPSHMVASFSKGYTSIFNMETQQRVLTLESNVDSTSSSSCQINRVISHPTLPISITAHEDRHIKFYDNNTGKLIHSMVAHLEAVTSLAVDPNGLYLMSGSHDCSIRLWNLESKTCIQEFTAHRKKFEESIHDVAFHPSKCYIASAGADALAKVFV
modifications: biotin (proximity-dependent biotinylation, sites not stated)

target: USP46-WT-BirA(R118G)-HA fusion protein (mouse) (UniProt P62069); assay: proximity labelling; BioID: knock-in Neuro2a cells stably expressing USP46 (WT or ΔK92)-BirA(R118G)-HA, 50 μM biotin for 24 h; lysis in TNE buffer with 0.1% Triton X-100; streptavidin Mag Sepharose pull-down, SDS-PAGE, LC-MS/MS; proteins of the CRAPome list and of intact Neuro2a cells excluded

binding, binds:
PHLPP1 (from UniProt Q8CHE4 1-1687)

target: USP46-ΔK92-BirA(R118G)-HA fusion protein (mouse) (UniProt P62069); assay: as above

binding, binds:
PHLPP1 (from UniProt Q8CHE4 1-1687)

target: USP46-WT-BirA(R118G)-HA fusion protein (mouse) (UniProt P62069); assay: as above; remark: another data set of the same source

binding, binds:
B1
B2
B3
B4
B5
B6
B7
